In patent US11602546B2, “Combination inhibiting MEIS proteins” (YEDÍTEPE ÜNÍVERSÍTESÍ, priority 2016, dated 2023):
Some entries share one result that the patent states for a list of compounds.

System: Lin− cells obtained from the bone marrow / HSCs
Assay: ex vivo mouse HSC proliferation (Lin− bone marrow cells, flow cytometry)
Type: cell-based
Conditions: after 10 days
Protocol: 4—Determining the effect of MEIS inhibitor on ex vivo HSC proliferation
Bone marrow isolation from mouse and HSC purification were performed. For this, following euthanasia of 8-12 week old mice with isoflurane, bone marrow cells were obtained from femur and tibia bones. Briefly, Lin−, Sca1+, c-Kit+, CD34low cells (long term HSCs) were obtained by being stained with cell line cocktail with biotin (anti-CD3, anti-CDS, anti-B220, anti-Mac-1, anti-Gr1, anti-Ter119; Stem Cell Technologies), and that was followed by streptavidin-PE/Cy5.5, anti-Sca-1-FITC, anti-KIT-APC, and anti-CD34-PE staining. HSC medium known as SCF medium was used in the culture of the isolated bone marrow cells. […]
HSC frequency and number: The Lin− cells obtained from the bone marrow were treated in the cell culture with MEIS inhibitors or DMSO for 10 days, and subsequently the number of hematopoietic cells (FIG. 4) and the percentage of HSCs (FIGS. 5 and 6) were determined. In order to determine the number of HSCs, the concerned surface antigens (Lin−, Sca1+, c-Kit+, CD34−) were stained with fluorochrome conjugated antibody as in the previous studies and then analyzed with flow cytometry (ER: C).

`O=C1C=Cc2ccccc2/C1=C/NNC(=O)c1ccc(O)cc1` [MEISi-2, 4-hydroxy-N′-[(Z)-(2-oxonaphthalen-1-ylidene)methyl] benzohydrazide] was tested. Which “dose-dependent increase in the number of hematopoietic cells” value did it give?
The value was “Up to 2.5 times”.
